PMC12373733
These are yes or no findings as the source states them, for the method shown. In cells and extracts the contact can be indirect. Some results given as binding are weak or reduced against the parent protein; the word gives no strength.

By UniProt entry, the sequences of proteins in these tests, tags left out.
UniProt O14980: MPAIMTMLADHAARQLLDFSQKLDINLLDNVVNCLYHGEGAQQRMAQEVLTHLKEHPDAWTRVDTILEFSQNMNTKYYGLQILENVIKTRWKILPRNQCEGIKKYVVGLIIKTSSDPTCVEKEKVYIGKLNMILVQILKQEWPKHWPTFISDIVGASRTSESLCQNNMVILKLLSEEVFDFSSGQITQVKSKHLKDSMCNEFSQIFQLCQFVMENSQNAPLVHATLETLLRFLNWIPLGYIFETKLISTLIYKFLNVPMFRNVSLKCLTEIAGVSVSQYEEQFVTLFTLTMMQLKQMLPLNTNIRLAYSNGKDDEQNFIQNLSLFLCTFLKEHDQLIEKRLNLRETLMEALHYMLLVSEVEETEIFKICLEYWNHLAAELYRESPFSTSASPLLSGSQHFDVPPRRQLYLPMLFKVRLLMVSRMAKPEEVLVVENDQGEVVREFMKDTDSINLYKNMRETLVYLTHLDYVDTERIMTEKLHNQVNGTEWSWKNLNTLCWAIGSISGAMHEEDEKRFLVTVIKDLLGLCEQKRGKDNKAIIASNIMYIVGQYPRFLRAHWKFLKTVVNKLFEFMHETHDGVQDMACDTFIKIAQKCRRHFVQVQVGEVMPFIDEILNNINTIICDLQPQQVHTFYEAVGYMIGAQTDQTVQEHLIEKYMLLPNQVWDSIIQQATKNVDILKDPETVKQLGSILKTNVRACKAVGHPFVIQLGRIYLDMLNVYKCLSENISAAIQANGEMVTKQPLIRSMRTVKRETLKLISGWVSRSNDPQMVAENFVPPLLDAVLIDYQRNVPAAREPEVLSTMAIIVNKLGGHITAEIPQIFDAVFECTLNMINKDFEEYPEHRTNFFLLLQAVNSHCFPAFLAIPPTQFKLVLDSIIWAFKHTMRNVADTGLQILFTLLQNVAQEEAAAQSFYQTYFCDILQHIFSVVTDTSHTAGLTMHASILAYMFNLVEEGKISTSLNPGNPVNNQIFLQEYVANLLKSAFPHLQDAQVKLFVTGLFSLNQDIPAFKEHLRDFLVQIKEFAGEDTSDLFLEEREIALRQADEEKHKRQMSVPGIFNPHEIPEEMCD

What was measured:
[1] = target: T1, Lipin1 (human (endogenous in NCI-H929)) (UniProt Q14693); test: co-IP; NCI-H929 cell lysates, anti-XPO1 or anti-Lipin1 antibody, Protein A/G agarose beads, 4 °C overnight; each reaction supplemented with 5 μM Ran-GTP (Ran (Q69L) mutant); Western blot
T1 sequence: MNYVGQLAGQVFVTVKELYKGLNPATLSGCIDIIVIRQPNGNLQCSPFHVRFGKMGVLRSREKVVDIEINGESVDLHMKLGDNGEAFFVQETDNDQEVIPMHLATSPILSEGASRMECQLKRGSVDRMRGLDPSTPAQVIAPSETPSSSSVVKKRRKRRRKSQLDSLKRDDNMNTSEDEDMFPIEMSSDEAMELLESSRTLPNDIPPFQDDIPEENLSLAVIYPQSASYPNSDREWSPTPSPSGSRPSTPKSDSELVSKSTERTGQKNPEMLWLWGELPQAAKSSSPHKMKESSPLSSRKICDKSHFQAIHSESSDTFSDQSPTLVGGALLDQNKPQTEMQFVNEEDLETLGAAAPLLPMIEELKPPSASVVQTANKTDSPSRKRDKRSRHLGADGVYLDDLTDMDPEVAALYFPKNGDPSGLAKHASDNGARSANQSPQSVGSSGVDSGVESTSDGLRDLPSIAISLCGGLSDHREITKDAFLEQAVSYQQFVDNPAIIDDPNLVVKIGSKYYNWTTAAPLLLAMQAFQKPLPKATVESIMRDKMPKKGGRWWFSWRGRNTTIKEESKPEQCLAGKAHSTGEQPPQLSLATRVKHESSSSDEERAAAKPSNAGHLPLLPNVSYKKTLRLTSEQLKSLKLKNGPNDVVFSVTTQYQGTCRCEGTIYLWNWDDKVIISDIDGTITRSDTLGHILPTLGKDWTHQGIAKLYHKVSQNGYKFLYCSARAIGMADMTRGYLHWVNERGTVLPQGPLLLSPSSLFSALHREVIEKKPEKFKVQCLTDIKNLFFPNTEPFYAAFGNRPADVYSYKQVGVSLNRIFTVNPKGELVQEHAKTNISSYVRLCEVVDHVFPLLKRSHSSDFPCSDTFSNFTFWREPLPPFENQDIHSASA

[2] = target: T1, Lipin1 (human (endogenous in NCI-H929)); test: co-IP; anti-Lipin1 antibody, lysates of NCI-H929 cells with or without XPO1 knockdown; addition of Ran-GTP not stated; Western blot
[3] = target: Exportin-1 (XPO1) (human (endogenous in NCI-H929)) (UniProt O14980); test: co-IP; NCI-H929 cell lysates, anti-XPO1 or anti-Lipin1 antibody, Protein A/G agarose beads, 4 °C overnight; each reaction supplemented with 5 μM Ran-GTP (Ran (Q69L) mutant); Western blot
[4] = target: Exportin-1 (XPO1) (human (endogenous in NCI-H929)) (UniProt O14980); test: co-IP; NCI-H929 lysates incubated with anti-XPO1 antibody in the absence of Ran-GTP; Western blot of Lipin1

Exportin-1 (XPO1) (from UniProt O14980 1-1071)
binding [1]: binds
binding [2]: binds

B1: Lipin1 (protein, UniProt Q14693 1-890)
chain: MNYVGQLAGQVFVTVKELYKGLNPATLSGCIDIIVIRQPNGNLQCSPFHVRFGKMGVLRSREKVVDIEINGESVDLHMKLGDNGEAFFVQETDNDQEVIPMHLATSPILSEGASRMECQLKRGSVDRMRGLDPSTPAQVIAPSETPSSSSVVKKRRKRRRKSQLDSLKRDDNMNTSEDEDMFPIEMSSDEAMELLESSRTLPNDIPPFQDDIPEENLSLAVIYPQSASYPNSDREWSPTPSPSGSRPSTPKSDSELVSKSTERTGQKNPEMLWLWGELPQAAKSSSPHKMKESSPLSSRKICDKSHFQAIHSESSDTFSDQSPTLVGGALLDQNKPQTEMQFVNEEDLETLGAAAPLLPMIEELKPPSASVVQTANKTDSPSRKRDKRSRHLGADGVYLDDLTDMDPEVAALYFPKNGDPSGLAKHASDNGARSANQSPQSVGSSGVDSGVESTSDGLRDLPSIAISLCGGLSDHREITKDAFLEQAVSYQQFVDNPAIIDDPNLVVKIGSKYYNWTTAAPLLLAMQAFQKPLPKATVESIMRDKMPKKGGRWWFSWRGRNTTIKEESKPEQCLAGKAHSTGEQPPQLSLATRVKHESSSSDEERAAAKPSNAGHLPLLPNVSYKKTLRLTSEQLKSLKLKNGPNDVVFSVTTQYQGTCRCEGTIYLWNWDDKVIISDIDGTITRSDTLGHILPTLGKDWTHQGIAKLYHKVSQNGYKFLYCSARAIGMADMTRGYLHWVNERGTVLPQGPLLLSPSSLFSALHREVIEKKPEKFKVQCLTDIKNLFFPNTEPFYAAFGNRPADVYSYKQVGVSLNRIFTVNPKGELVQEHAKTNISSYVRLCEVVDHVFPLLKRSHSSDFPCSDTFSNFTFWREPLPPFENQDIHSASA
binding [3]: binds
binding [4]: binds
